Reference: patent publication US20070167360A1
These are yes or no findings as the source states them, for the method shown. Binding seen in cells or lysates may run through a third protein. Some results given as binding are weak or reduced against the parent protein; the word gives no strength.

Sequences of proteins named here, by UniProt entry; tags and fusion partners are left off. Residues count along the entry.
UniProt Q62151, residues 23-340: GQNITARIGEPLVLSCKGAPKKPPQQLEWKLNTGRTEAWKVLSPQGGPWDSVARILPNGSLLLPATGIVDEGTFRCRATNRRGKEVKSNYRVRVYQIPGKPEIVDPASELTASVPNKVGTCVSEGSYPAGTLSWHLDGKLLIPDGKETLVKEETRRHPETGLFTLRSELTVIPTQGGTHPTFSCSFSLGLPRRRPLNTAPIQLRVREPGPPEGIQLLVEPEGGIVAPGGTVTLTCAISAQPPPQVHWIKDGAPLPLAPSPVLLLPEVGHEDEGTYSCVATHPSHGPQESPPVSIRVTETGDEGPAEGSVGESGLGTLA

Columns and labels:
[1] = target: T1, S100b (endogenous, in splenic extracts of mice induced to develop EAE) (mouse) (UniProt P50114); assay: co-immunoprecipitation from splenic extracts with anti-S100b IgG, immunoblot with anti-RAGE IgG
T1 sequence (looked up): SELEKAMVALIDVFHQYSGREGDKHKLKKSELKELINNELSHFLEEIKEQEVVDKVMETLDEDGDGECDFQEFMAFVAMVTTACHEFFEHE

[2] = target: T1, S100b (endogenous, in splenic extracts of mice induced to develop EAE) (mouse); assay: co-immunoprecipitation from splenic extracts (as told in the Discussion)

Murine soluble (s) RAGE (from UniProt Q62151 23-340) (receptor)
binding [1]: binds | binding [2]: binds
